Test results as given in the supplement of paper PMC10849652.
This is one part of the list.

Chains of the proteins cited; added tags and fusions are not shown. Lines headed by an entry give the natural chain unless they say otherwise; changes in a name come on top.
UniProt O60678: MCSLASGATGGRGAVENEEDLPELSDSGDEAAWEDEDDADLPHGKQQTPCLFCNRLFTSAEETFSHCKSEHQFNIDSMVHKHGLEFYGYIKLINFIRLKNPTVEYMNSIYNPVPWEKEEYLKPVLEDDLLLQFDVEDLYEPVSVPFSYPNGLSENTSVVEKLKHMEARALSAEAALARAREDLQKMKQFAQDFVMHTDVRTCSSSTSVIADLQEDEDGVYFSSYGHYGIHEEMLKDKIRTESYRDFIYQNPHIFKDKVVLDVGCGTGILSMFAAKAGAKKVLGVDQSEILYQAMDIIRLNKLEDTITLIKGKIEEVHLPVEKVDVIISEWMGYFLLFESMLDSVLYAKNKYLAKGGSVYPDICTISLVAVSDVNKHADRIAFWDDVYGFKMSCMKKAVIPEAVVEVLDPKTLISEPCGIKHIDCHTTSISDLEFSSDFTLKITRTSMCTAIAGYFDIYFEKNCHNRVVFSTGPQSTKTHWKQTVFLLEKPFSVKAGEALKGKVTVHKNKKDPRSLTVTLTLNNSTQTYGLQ
UniProt O43900: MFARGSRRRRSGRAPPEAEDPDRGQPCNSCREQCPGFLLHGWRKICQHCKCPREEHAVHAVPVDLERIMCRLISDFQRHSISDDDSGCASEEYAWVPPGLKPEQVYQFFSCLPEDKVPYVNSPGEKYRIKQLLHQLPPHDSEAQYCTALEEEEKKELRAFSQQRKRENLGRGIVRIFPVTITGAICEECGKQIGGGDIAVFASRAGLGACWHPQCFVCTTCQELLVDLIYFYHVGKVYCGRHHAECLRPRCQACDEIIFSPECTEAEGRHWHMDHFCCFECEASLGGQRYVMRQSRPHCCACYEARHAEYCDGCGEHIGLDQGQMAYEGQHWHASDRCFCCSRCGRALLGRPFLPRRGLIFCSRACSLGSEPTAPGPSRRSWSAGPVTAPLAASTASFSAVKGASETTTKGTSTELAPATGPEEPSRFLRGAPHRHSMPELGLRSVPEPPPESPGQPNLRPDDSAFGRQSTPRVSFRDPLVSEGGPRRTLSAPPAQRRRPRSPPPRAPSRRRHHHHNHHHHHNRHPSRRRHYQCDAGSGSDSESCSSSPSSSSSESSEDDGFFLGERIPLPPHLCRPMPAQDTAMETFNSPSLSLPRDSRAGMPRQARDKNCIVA
UniProt Q96LW4: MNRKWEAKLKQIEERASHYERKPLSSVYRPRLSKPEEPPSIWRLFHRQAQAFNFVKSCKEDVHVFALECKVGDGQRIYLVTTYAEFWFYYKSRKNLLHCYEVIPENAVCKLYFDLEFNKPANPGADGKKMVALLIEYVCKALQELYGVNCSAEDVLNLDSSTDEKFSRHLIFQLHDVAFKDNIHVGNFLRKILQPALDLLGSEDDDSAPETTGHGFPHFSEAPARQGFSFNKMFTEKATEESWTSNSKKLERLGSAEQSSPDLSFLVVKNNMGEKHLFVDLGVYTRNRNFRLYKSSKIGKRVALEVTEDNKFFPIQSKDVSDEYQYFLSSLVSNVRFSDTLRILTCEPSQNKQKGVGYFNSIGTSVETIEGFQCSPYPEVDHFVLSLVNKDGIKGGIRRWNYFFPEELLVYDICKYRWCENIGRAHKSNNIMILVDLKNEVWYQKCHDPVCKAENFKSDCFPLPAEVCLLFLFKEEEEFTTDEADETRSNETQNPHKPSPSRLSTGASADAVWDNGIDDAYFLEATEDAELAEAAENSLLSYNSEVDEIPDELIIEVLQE
UniProt Q8WWY3: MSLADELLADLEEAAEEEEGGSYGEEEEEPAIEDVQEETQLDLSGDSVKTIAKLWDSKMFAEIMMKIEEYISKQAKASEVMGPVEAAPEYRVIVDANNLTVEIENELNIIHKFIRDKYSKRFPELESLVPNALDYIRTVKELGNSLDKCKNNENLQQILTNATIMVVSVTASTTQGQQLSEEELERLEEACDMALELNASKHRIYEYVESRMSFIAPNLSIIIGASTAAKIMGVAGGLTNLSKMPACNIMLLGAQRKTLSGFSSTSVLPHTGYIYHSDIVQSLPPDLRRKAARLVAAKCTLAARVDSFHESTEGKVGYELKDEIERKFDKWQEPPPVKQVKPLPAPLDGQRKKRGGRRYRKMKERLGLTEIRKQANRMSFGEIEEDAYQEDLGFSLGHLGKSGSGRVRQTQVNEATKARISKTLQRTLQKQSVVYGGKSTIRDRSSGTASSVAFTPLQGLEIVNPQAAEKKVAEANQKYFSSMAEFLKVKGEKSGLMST
UniProt Q13131: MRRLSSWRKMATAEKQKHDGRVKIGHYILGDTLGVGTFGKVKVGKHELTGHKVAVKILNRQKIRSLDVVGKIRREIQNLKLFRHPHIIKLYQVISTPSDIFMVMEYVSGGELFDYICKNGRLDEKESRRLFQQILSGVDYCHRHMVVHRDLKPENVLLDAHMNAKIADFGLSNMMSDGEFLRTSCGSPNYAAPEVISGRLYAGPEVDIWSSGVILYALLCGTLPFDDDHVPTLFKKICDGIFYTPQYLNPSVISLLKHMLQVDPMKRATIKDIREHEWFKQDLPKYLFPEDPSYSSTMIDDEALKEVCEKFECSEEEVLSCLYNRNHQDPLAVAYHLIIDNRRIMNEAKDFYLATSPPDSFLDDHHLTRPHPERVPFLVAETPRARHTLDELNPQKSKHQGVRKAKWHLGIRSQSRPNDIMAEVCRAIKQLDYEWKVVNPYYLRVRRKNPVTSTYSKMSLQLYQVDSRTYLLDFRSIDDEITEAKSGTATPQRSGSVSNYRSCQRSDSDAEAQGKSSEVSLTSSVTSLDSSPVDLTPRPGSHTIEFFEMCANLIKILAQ
UniProt Q86UA1: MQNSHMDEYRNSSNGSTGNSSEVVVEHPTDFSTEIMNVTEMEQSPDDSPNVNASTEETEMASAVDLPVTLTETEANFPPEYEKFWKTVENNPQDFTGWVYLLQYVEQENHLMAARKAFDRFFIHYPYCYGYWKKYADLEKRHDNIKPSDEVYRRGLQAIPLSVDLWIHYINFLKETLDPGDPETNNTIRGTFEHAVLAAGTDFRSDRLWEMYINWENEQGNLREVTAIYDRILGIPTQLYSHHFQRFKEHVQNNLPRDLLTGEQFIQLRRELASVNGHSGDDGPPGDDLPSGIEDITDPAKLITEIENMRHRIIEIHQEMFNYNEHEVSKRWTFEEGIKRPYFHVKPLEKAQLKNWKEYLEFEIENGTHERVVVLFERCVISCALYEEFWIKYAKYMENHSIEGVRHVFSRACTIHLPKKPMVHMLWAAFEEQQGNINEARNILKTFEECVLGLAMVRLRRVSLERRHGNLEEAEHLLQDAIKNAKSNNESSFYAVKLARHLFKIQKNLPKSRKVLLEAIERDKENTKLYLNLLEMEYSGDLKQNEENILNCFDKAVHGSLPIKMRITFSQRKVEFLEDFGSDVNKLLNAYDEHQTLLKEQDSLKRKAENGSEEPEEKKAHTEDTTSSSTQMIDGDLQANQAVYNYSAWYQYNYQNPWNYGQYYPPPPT
UniProt Q96C90: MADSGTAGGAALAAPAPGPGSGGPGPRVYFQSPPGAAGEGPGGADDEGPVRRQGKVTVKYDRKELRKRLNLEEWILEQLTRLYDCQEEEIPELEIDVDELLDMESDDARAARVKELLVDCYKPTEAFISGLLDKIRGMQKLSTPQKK
UniProt P30041: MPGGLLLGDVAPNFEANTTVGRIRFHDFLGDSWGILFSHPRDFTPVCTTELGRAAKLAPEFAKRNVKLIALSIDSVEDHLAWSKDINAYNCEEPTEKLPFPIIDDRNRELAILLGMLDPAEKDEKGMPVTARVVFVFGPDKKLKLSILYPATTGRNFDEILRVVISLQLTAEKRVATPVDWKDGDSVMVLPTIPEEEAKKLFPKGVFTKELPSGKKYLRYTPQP
UniProt Q9Y255: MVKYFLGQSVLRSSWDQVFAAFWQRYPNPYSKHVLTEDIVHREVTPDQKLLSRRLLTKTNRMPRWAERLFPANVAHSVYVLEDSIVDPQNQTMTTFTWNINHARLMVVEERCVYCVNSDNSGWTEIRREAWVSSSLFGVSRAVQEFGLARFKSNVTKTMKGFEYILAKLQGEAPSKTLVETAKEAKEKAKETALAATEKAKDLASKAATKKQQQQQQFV
UniProt O43447: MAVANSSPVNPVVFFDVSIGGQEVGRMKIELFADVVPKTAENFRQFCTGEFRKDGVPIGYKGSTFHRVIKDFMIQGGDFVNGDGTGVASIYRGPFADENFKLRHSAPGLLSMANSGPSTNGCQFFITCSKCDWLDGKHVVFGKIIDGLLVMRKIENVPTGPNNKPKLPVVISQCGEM
UniProt Q9ULJ8: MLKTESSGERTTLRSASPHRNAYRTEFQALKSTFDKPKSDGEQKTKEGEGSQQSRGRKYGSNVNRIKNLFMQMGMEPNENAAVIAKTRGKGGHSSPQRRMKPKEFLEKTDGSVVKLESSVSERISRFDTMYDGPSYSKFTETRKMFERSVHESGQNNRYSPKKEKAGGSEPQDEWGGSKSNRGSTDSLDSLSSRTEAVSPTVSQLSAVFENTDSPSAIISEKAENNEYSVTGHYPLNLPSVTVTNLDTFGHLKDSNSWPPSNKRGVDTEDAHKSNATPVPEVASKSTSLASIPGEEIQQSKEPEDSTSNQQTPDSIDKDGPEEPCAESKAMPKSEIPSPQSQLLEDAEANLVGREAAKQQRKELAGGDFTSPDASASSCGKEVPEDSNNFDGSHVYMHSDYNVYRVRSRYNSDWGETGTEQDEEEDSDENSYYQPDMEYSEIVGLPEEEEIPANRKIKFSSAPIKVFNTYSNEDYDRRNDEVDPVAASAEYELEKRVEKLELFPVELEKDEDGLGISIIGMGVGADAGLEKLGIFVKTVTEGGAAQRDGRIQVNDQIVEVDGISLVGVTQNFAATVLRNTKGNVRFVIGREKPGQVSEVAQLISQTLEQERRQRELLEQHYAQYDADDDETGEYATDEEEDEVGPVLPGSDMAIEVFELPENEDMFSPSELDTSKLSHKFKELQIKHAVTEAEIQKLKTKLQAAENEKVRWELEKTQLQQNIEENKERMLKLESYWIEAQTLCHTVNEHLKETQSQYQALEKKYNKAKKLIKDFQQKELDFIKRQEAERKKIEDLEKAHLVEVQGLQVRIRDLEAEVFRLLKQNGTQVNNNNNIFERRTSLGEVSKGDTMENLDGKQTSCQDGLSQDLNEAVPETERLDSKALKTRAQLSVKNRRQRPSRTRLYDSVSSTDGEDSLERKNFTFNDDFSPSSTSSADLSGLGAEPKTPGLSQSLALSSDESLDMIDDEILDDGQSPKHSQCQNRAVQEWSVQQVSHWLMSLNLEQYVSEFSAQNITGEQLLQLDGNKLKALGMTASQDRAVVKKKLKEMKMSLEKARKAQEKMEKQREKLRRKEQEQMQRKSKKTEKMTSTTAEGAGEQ
UniProt P49593: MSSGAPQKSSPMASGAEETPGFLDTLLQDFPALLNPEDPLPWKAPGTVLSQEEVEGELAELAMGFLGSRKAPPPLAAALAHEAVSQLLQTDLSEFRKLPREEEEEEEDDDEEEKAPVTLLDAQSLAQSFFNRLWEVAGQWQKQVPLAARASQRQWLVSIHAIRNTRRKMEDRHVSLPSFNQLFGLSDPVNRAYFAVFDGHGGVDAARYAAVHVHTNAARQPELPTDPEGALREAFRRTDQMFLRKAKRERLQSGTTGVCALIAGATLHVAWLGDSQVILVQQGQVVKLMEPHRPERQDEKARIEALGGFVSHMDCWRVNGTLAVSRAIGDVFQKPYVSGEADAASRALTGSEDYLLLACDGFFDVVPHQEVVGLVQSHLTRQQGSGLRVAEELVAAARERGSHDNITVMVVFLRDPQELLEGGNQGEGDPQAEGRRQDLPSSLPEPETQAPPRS
UniProt P62140, whole entry, looked up: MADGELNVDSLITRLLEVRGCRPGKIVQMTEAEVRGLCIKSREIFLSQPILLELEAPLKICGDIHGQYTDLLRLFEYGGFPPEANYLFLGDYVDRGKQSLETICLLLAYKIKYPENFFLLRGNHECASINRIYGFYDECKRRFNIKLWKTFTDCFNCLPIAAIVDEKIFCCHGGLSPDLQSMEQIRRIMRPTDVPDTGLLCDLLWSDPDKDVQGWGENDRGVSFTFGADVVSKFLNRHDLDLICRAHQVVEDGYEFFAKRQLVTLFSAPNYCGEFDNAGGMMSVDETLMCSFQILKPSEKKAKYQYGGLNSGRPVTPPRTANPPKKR
UniProt P53041: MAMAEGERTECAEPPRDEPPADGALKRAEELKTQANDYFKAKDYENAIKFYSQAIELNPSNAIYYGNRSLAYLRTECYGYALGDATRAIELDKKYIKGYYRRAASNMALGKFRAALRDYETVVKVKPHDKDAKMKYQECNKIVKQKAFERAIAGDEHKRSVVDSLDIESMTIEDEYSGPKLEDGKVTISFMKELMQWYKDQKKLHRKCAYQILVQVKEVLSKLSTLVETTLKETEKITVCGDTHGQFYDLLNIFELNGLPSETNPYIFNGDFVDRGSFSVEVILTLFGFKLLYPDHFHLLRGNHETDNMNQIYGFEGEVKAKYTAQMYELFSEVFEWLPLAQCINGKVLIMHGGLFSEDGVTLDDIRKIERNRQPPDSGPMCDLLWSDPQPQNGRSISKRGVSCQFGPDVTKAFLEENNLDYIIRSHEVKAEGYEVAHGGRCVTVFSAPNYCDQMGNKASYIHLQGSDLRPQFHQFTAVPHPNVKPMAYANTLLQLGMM

Tests used:
Experiment in all cases: log2 fold change, soluble protein after heating vs DMSO (PISA); higher = thermal stabilisation; K562 lysate, 10 uM; active = over 0.2 and 3.5 SD of the protein, either way, in both replicates (recomputed)
[1] = compound: C1=CC=C(C=C1)[C@H](COC2=CC3=C(C=C2)NC(=O)N3)NC(=O)C4=CC=CN(C4=O)CC5=CC(=C(C=C5)F)F
Procedure, shortened: (§1)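 Thermal stability, expressed as log-two fold change relative to solvent controls, is given from duplicates. Crude K562 extract in PBS pH 7.4 with 1 mM MgCl2, at 1 mg/mL protein, was treated with 10 μM compound for 30 min and heated in aliquots for 3 min across 48°C-58°C. After pooling, adjustment to 0.5% NP-40 at 4°C and centrifugation at 21,000xg for 90 min, supernatant protein was measured by TMTpro 16plex LC-MS/MS with channel sums equalised.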

[2] = compound: CC1=C(SC2=C1C(=N[C@H](C3=NN=C(N32)C)CC(=O)N)C4=CC=C(C=C4)Cl)C
Procedure, shortened: as §1

[3] = compound: CC1=C2C(=CC=C1)N=C(N(C2=O)C3=CC=CC=C3C)CN4C=NC5=C(N=CN=C54)N
Procedure, shortened: as §1

[4] = compound: Cc1sc2c(c1C)C(c1ccc(Cl)cc1)=N[C@@H](CC(=O)OC(C)(C)C)c1nnc(C)n1-2
Procedure, shortened: as §1

[5] = compound: c1ccc([C@@H]2C[C@H]2NC2CCNCC2)cc1
Procedure, shortened: as §1

Measured: log2 fold change

PPP4R4 (UniProt Q6NUP7)
inactive: [1] 0.053 | [2] 0.028 | [3] 0.053 | [4] -0.047

PPIP5K2 (UniProt H0Y9S9)
inactive: [1] 0 | [2] -0.086 | [3] 0.175 | [4] -0.077

PRMT3 (UniProt O60678)
inactive: [1] -0.002 | [2] -0.008 | [3] 0.018 | [4] -0.007 | [5] -0.017

PRDM10 isoform 6 (UniProt Q9NQV6)
inactive: [1] -0.079 | [2] 0.033 | [3] 0.064

PRICKLE3 (UniProt O43900)
inactive: [1] -0.039 | [2] -0.055

PRKAG1 (UniProt P54619)
inactive: [1] -0.048 | [2] 0.026 | [3] -0.017 | [4] -0.008 | [5] -0.085

PRIMPOL (UniProt Q96LW4)
inactive: [1] 0.009 | [2] 0.009 | [3] -0.015 | [4] -0.024

PRKX (UniProt P51817)
inactive: [1] -0.081 | [2] 0.014 | [3] 0.06 | [4] -0.001 | [5] -0.004

PRPF31 (UniProt Q8WWY3)
inactive: [1] 0.075 | [2] -0.023 | [3] -0.015 | [4] 0.01 | [5] 0.028

PPM1E (UniProt Q8WY54)
inactive: [1] 0.008 | [2] -0.033 | [3] -0.037 | [4] 0.017 | [5] -0.067

PRKAA1 isoform 2 (UniProt Q13131)
inactive: [1] 0.007 | [2] -0.032 | [3] -0.016 | [4] 0.028 | [5] -0.036

PRPF38A (UniProt Q8NAV1)
inactive: [1] 0.034 | [2] -0.055 | [3] -0.08 | [4] -0.024 | [5] -0.133

PPP1R8 (UniProt Q12972)
inactive: [1] 0.006 | [2] 0.017 | [3] 0.003 | [4] 0.059 | [5] -0.142

PPP4R2 (UniProt Q9NY27)
inactive: [1] 0.019 | [2] 0.025 | [3] -0.001 | [4] -0.026 | [5] -0.009

PROCR (UniProt Q9UNN8)
inactive: [1] -0.004 | [2] 0.009 | [3] 0.016 | [4] 0.05 | [5] -0.003

PRC1 (UniProt O43663)
inactive: [1] 0.089 | [2] 0.037 | [3] 0.026 | [4] 0.03 | [5] 0.043

PRKDC (UniProt P78527)
inactive: [1] -0.073 | [2] -0.123 | [3] -0.064 | [4] 0.028 | [5] -0.048

PRKD2 isoform 3 (UniProt Q9BZL6)
inactive: [1] 0.001 | [2] -0.031 | [3] 0.121 | [4] 0.02 | [5] 0.104

PPIG (UniProt Q13427)
inactive: [1] -0.045 | [2] 0.073 | [3] 0.027 | [4] 0.039 | [5] 0.021

PRDM2 (UniProt Q13029)
inactive: [1] 0.255 | [2] -0.094 | [3] -0.068 | [4] 0.043 | [5] -0.014

PRPF39 (UniProt Q86UA1)
inactive: [1] -0.015 | [2] 0.013 | [3] -0.053 | [4] 0.021 | [5] 0.04

PRKACA (UniProt P17612)
inactive: [1] 0.029 | [2] 0.019 | [3] 0.008 | [4] -0.013 | [5] -0.245

2 entries picked at random from the list so far, as already listed:
PRKAA1 isoform 2 (UniProt Q13131)
inactive: [1] 0.007 | [2] -0.032 | [3] -0.016 | [4] 0.028 | [5] -0.036

PRPF39 (UniProt Q86UA1)
inactive: [1] -0.015 | [2] 0.013 | [3] -0.053 | [4] 0.021 | [5] 0.04

(continued)

PPP1R14B (UniProt Q96C90)
inactive: [1] 0.033 | [2] -0.011 | [3] -0.016 | [4] -0.081 | [5] -0.111

PRDX6 (UniProt P30041)
inactive: [1] -0.001 | [2] -0.003 | [3] 0.003 | [4] 0.007 | [5] 0.03

PRELID1 (UniProt Q9Y255)
inactive: [1] -0.066 | [2] 0.041 | [3] 0.053

PPP6C isoform 3 (UniProt O00743)
inactive: [1] 0.009 | [2] -0.007 | [3] 0.007 | [4] 0.024 | [5] -0.063

PPP1R12A (UniProt O14974)
inactive: [1] 0.008 | [2] -0.006 | [3] 0.024 | [4] 0.003 | [5] 0.005

PPP1R12B isoform 6 (UniProt O60237)
inactive: [1] 0.043 | [2] 0.033 | [3] 0.088 | [4] -0.145

PPIH (UniProt O43447)
inactive: [1] -0.001 | [2] -0.026 | [3] 0.019 | [4] 0.044 | [5] 0.029

PREB (UniProt Q9HCU5)
inactive: [1] 0.026 | [2] 0.021 | [3] -0.006 | [4] 0 | [5] -0.015

PRKAR1B (UniProt P31321)
inactive: [1] 0.015 | [2] 0.024 | [3] -0.069 | [4] 0.173 | [5] 0.063

PPWD1 (UniProt Q96BP3)
inactive: [1] 0.006 | [2] 0.007 | [3] 0.011 | [4] 0 | [5] 0.002

PPP1R12C isoform 4 (UniProt Q9BZL4)
inactive: [1] -0.016 | [2] -0.017 | [3] 0.004 | [4] -0.064 | [5] 0.007

PPP1R9A isoform 3 (UniProt Q9ULJ8)
inactive: [1] 0.046 | [2] -0.006 | [3] 0.039 | [4] 0.026 | [5] -0.019

PPM1F (UniProt P49593)
inactive: [1] 0.027 | [2] 0.001 | [3] 0.001 | [4] -0.001 | [5] -0.039

PPIP5K1 (UniProt Q6PFW1)
inactive: [1] -0.016 | [2] 0.054 | [3] 0.021 | [4] 0.002 | [5] 0.035

PRMT2 (UniProt P55345)
inactive: [1] -0.031 | [2] 0.037 | [3] 0.123 | [4] -0.032 | [5] -0.005

PPP2CA (UniProt P67775)
inactive: [1] -0.108 | [2] 0.037 | [3] 0.037 | [4] 0.092 | [5] -0.092

PPP1CB (UniProt P62140)
inactive: [1] -0.012 | [2] 0.042 | [3] -0.02 | [4] 0.002 | [5] 0.011

PPP1R10 (UniProt Q96QC0)
inactive: [1] -0.025 | [2] -0.002 | [3] 0.011 | [4] 0.014 | [5] 0.001

PRKACB isoform 2 (UniProt P22694)
inactive: [1] -0.042 | [2] -0.004 | [3] -0.018 | [4] -0.009 | [5] 0.019

PRKCSH (UniProt P14314)
inactive: [1] 0 | [2] -0.002 | [3] -0.017 | [4] 0.041 | [5] 0.021

PRCC (UniProt Q92733)
inactive: [1] 0.022 | [2] -0.026 | [3] -0.037 | [4] 0 | [5] 0.012

PPP1CC isoform 2 (UniProt P36873)
inactive: [1] 0.034 | [2] 0.003 | [3] 0.029 | [4] 0.013 | [5] 0.003

PRKCI (UniProt P41743)
inactive: [1] 0.042 | [2] 0.017 | [3] -0.014 | [4] -0.056 | [5] -0.041

PPP4R3B (UniProt Q5MIZ7)
inactive: [1] -0.008 | [2] -0.007 | [3] -0.01 | [4] -0.017 | [5] -0.003

PPP2R5C isoform 4 (UniProt Q13362)
inactive: [1] -0.057 | [2] 0.003 | [3] 0.021 | [4] -0.103 | [5] 0.021

PRPF40A (UniProt O75400)
inactive: [1] 0.016 | [2] -0.04 | [3] 0.02 | [4] 0.044 | [5] 0.017

PPP2R1A (UniProt P30153)
inactive: [1] -0.017 | [2] 0.014 | [3] -0.001 | [4] 0.006 | [5] 0.039

PRMT9 (UniProt Q6P2P2)
inactive: [1] -0.069 | [2] 0.026 | [3] 0.026 | [4] 0.011 | [5] 0

PPP2R5A (UniProt Q15172)
inactive: [1] -0.028 | [2] 0.042 | [3] 0.026 | [4] 0.009 | [5] 0.196

PPP2R5C isoform 2 (UniProt Q13362)
inactive: [1] -0.016 | [2] 0.224 | [3] 0.004 | [4] -0.136 | [5] 0.026

PPP5C (UniProt P53041)
inactive: [1] 0.012 | [2] 0.026 | [3] -0.006 | [4] -0.045 | [5] -0.082

PRPF4B (UniProt Q13523)
inactive: [1] 0.097 | [2] -0.01 | [3] 0.014 | [4] 0.02 | [5] 0.001
